Measured values reported in patent US6818647B2, “Method and composition for restoring diuretic and renal function” (CV Therapeutics, Inc, priority 1998, dated 2004).
Entries after “also recorded” stand apart in the source; their conditions may differ.

Experiments:
Male Sprague-Dawley rats [1] = test: Sustained i.v. infusion of diuretics in conscious catheterised rats: dose response, combinations, renal clearance (Example 2); format: in vivo, rat
Procedure: Male Sprague-Dawley rats were obtained from Charles River Labs (Wilmington, Del.). They were housed in a light-controlled room with a 12 h light/dark cycle and were allowed ad libitum access to food and water.
Catheters were implanted in the abdominal aorta and vena cava via the left femoral artery and vein under a mixture of ketamine hydrochloride (50 mg/kg) and acepromazine (0.2 mg/kg, i.m.) anesthesia. An additional medical grade Tygon tubing was placed in the he stomach at the left extremity of the greater curvature. A silastic-covered stainless steel cannula was implanted in the bladder. Details of surgery, pre and post-surgical care and the experimental set-ups have been described in detail previously (87). Experiments were conducted 4-5 days following surgery, by which time the rats had fully recovered and were gaining weight. During the recovery, the rats were housed individually and were accustomed to a plastic retainer (model ECU, Braintree Scientific, Inc., Braintree, Mass.).
Between 8:00-9:00 AM, rats were weighed and placed in the restrainer. The arterial line was connected to a Gilson polygraph via a Gould pressure transducer for the recording of blood pressure (MAP) and heart rate (HR); the venous line to infusion pumps for the infusion of vehicle and test agents; and the stomach tube to a 10 or 20 cc syringe to allow for the replacement of excess urinary loss. […]
Urinary and plasma concentrations of […] and PAH were determined by spectrophotometry, electrolyte concentrations were measured using the Synchron ASB Clinical System (Beckman Instr. Inc., Brea, Calif.) and osmolality by an automatic osmometer (Model 2430, Precision Systems, Inc., Natick, Mass.). Renal clearance values were calculated using standard clearance formulae and expressed per 100 g body weight.
All values represent maximal changes, expressed as absolute values, and are reported throughout as group means+−SEM. Data from the does-response studies (groups 1-5) were analyzed using an analysis of variance for repeated measures, post-hoc comparisons were made with the Schette f-test. […]

Male Sprague-Dawley rats [2] = test: Renal function of anesthetized rats after 0-3 days of furosemide, before and after BG9719 IV (Example 7); format: in vivo, rat; conditions: after 2 and 3 days of furosemide 100 mg/kg orally
Procedure: Twenty four hours after their last dose, they were anesthetized and instrumented to measure renal function and hemodynamics.
We collected a 30 minute baseline urine and determined basal sodium excretion in these rats.
Twenty-four hours after the last dose was administered, the rats were anesthetized and instrumented to measure renal function. […] Urine was collected via an implanted bladder catheter.

[3] = system: patients with NYHA Class II or III CHF; test: Renal function in CHF patients after single intravenous dose (Example 1); conditions: 0-2 hours, mean, single i.v. dose
[4] = renal clearance study, BG9719 1 or FUR 10 μg/kg/min i.v. for 90 min

NS(=O)(=O)c1cc(C(=O)O)c(NCc2ccco2)cc1Cl [furosemide]
absolute and fractional excretions of sodium (Male Sprague-Dawley rats [1]; [4]): increased
fractional excretion of potassium (Male Sprague-Dawley rats [1]; [4]): increased
Potassium excretion (Male Sprague-Dawley rats [1]; sustained i.v. infusion, dose response, single agents): significantly increased
basal sodium excretion (Male Sprague-Dawley rats [2]): continues to decrease; also recorded: basically excreting no sodium
NA + excretion [3]: increased
NA + excretion ([3]; listed as Furosemide): 103 mEq
